Results as given in the supplement of paper PMC10338343.
± gives the standard deviation. This is a selection; strong and weak results do not stand in their true shares. Many entries were measured with a wide error.

The sequences below were run on MILI (PIWIL2) piRISC loaded with piRNA #1 (26 nt) (assay: pre-steady-state target cleavage rate (min^-1); MIWI and MILI are mouse PIWI proteins and EfPiwi is from a freshwater sponge; tags in brackets are library labels; higher = faster piRNA-guided slicing of the target). Settings: guide: piRNA #1 5'p-UGAGGUAGUAGGUUGUAUAGUAUCCA; auxiliary factor: 500 nM mouse GTSF1.
Method in brief: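 In this Cleave-'n-Seq assay, uncleaved targets were sequenced and normalised to depth and to weakly complementary targets. They came from a transcribed, DNA-blocked target RNA library […] mixed with 1 nM active affinity-purified piRISC carrying one synthetic guide, with or without 500 nM GTSF1 partner protein, in HEPES–potassium acetate buffer at 33 °C for 0–8 or 0–960 min. After three trials were pooled and k3 was capped at 0.0001 min^-1, the pre-steady-state cleavage rate was obtained from a burst-and-steady-state fit.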
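Further: 1 nM active piRISC with 0.1 nM target library at 33 °C single turnover.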

Sequence | pre-steady-state target cleavage rate
GGAGACCUAUCUAUACAACCUACUAACUCA | 0.0846 ± 0.017
GGAGACGAUACUAAACUACCUACUACCUCA | 0.24 ± 0.018
GGAGACCAUACUAUACAACCUACUAGGACA | 0.00119 ± 0.0072
GGAGACCUAACUAAUACAACCUACUACCUCA | 0.103 ± 0.025
GGAGACCUAUGAUUAGAACGUACUACCUCA | 0.000267 ± 0.011
GGAGACCUAUGAAUAGAACCUUCUACCUCA | 0.000297 ± 0.014
GGAGACCUAUCUAUACAAACUACUACCUCA | 0.171 ± 0.015
GGAGACCUUACUAUACAACCUAGUAGCUCA | 0.000793 ± 0.0079
GGAGUGGAUAGAAUACAACCUACUACCUCA | 0.156 ± 0.014
GGAGACCUAUCUAUACAACCUUCUACCUGA | 0.00188 ± 0.0039
GGAGACCAUACUAUACAUCCUACUACCUCA | 0.302 ± 0.025
GGAGACCUAUCUAUACAACCUACUAGGACA | 0.00154 ± 0.0065
GGAGACCUUAGUAUACAACCUACUACGUCA | 0.0155 ± 0.0047
GGAGAGGAUACUAUACAUGGUACUACCUCA | 0.00387 ± 0.0028
GGAGUCGAUACUAUACAACCUUCUACCUCA | 0.00775 ± 0.0022
GGAGACCUAACUAUACAAGCUACUACCACA | 0.309 ± 0.029
GGAGACCUUACUAUACAACCUACUACCUUA | 0.174 ± 0.019
GGAGACCUUACUAUACAACCAACUACCUGA | 0.00286 ± 0.0032
GGAGACCUAUGAUAAGAACCUAGUACCUCA | 0.000141 ± 0.019
GGAGACGAUACUAAACAUCCUACUACCUCA | 0.267 ± 0.021
GGAGACCUAUCUAUACAACGUAGUACCUCA | 0.00772 ± 0.0031
GGAGACCUAACUAUAGAACCUACAACCUCA | 0.00273 ± 0.0042
GGAGACCUAACUAUAGAACCAACUACCUCA | 0.000782 ± 0.013
GGAGACCAUACUAUACAACCUACAACCUGA | 0.0179 ± 0.0095
GGAGACCUAUGAUUACAACCUAGUAGCUCA | 0.000602 ± 0.0094

Look-ups from the results shown:
GGAGACCUAACUAUAGAACCUACAACCUCA – pre-steady-state target cleavage rate: 0.00273 ± 0.0042
GGAGAGGAUACUAUACAUGGUACUACCUCA – pre-steady-state target cleavage rate: 0.00387 ± 0.0028
